Measurements published in paper PMC12431657, “Discovery and mechanistic insights of dibenzoylmethane as a broad spectrum inhibitor of coronavirus” (PLOS Pathogens, 2025).
Where two headings read alike, the source gives them in different places. The campaign covered roughly 3,300 compounds. About 95 (3%) showed an effect of 50% or more. The list shows a part of the results.

Test system: HCoV-229E
Design: species or system Huh-7; HTS, protection from HCoV-229E induced cell death, luminescent cell viability (CellCounting-Lite 2.0), inhibition rate
Conditions: 24 h post infection, 1 h compound pre-incubation, 10 µM, inhibitor

SMILES	229E Inhibition rate	229E Inhibition rate (229E Inhibition rate, 24 h)
Cc1cc(=O)oc2cc(O)ccc12 [4-Methylumbelliferone]	39.1%	
COC[C@@H](Cc1ccc(OC)c(OC)c1)[C@@H](COC)Cc1ccc(OC)c(OC)c1 [Phyllanthin]	22.8%	
CCCCCCCCCC(O)CC(=O)O (stereo not drawn) [3-Hydroxydodecanoic acid]	9.4%	
COc1cc2c(cc1OC)[C@@H](Cc1ccc(Oc3cc(C[C@@H]4c5cc(OC)c(OC)cc5CCN4C)ccc3O)cc1)N(C)CC2 [Dauricine]	3.6%	
CC(=O)O[C@H](CC=C(C)C)C1=CC(=O)c2c(O)ccc(O)c2C1=O [Acetylshikonin]	4%	
Cn1c(=O)c2nc[nH]c2n(C)c1=O [Theophylline]	6%	
COc1ccc(C=O)cc1 [4-Methoxybenzaldehyde]	9.5%	
O=C1c2c(O)cccc2[C@@H]([C@@H]2O[C@H](CO)[C@@H](O)[C@H](O)[C@H]2O)c2cc(CO)cc(O)c21 [Aloin B]	4.8%	
C/C=C/C(=O)C1=C(C)C=CCC1(C)C [Damascenone]	18.4%	
COC(=O)c1cc(O)c(O)c(O)c1 [Methyl gallate]	24.6%	
C[C@@H]1CC[C@]2(C(=O)O)CC[C@]3(C)C(=CC[C@@H]4[C@@]5(C)CC[C@H](O[C@@H]6OC[C@H](O)[C@H](O)[C@H]6O)C(C)(C)[C@@H]5CC[C@]43C)[C@@H]2[C@]1(C)O [Ziyuglycoside II]	3.2%	
COc1cc(C(=O)O)cc(OC)c1O [Syringic acid]	9.1%	
COc1cc(CCC(=O)CC(=O)CCc2ccc(O)c(OC)c2)ccc1O [Tetrahydrocurcumin]	14.4%	
C[N+](C)(C)C[C@H](O)CC(=O)[O-] [L-Carnitine]		12.8%
O=C1C[C@@H](c2ccc(O)c(O)c2)Oc2cc(O[C@@H]3O[C@H](CO)[C@@H](O)[C@H](O)[C@H]3O)cc(O)c21 [Eriodictyol-7-O-glucoside]	45.6%	
COC1[C@@H](O)[C@H](O)C(O)[C@H](O)[C@H]1O (stereo partly drawn) [Sequoyitol]	5.9%	
C[C@@H]1CC[C@@]2(OC1)O[C@H]1C[C@H]3[C@@H]4CC=C5C[C@@H](O)C[C@@H](O[C@@H]6O[C@H](C)[C@H](O)[C@H](O[C@@H]7OC[C@@H](O)[C@H](O)[C@H]7O)[C@H]6O[C@@H]6O[C@@H](C)[C@H](O)[C@@H](O)[C@H]6O)[C@]5(C)[C@H]4CC[C@]3(C)[C@H]1[C@@H]2C [Ophiopogonin D]		50.3%
COc1ccc([C@@H](O)CNC(=O)/C=C/c2ccccc2)cc1 (racemic) [Aegeline]	0%	

2 of these compounds in a different format.
SMILES | 229E Inhibition rate | 229E Inhibition rate (229E Inhibition rate, 24 h)
COc1cc(CCC(=O)CC(=O)CCc2ccc(O)c(OC)c2)ccc1O [Tetrahydrocurcumin] | 14.4% | 
C[N+](C)(C)C[C@H](O)CC(=O)[O-] [L-Carnitine] |  | 12.8%
